Measured values: PubChem BioAssay AID720711 (National Center for Advancing Translational Sciences (NCATS), 2013)
About 290 (0.081%) of roughly 360,000 compounds were called active. Inconclusive means that the source gave no clear call. Such entries were picked first, then a sample of the others. Calls come from the whole dose curve; as a rule, active = well fitted activation curve with a large enough effect; inconclusive = small, poorly fitted or top-dose-only effect; inactive = no such curve, though single readings can be large or run the other way. Potencies of inconclusive entries are doubtful fits and often do not repeat.
Note: nearly all actives have a fitted effect of over 50% in size.
Potency is the fitted concentration of half-maximal effect.

The chains behind the UniProt entries cited, without tags or fusion partners.
UniProt Q8WZA2, whole entry, looked up: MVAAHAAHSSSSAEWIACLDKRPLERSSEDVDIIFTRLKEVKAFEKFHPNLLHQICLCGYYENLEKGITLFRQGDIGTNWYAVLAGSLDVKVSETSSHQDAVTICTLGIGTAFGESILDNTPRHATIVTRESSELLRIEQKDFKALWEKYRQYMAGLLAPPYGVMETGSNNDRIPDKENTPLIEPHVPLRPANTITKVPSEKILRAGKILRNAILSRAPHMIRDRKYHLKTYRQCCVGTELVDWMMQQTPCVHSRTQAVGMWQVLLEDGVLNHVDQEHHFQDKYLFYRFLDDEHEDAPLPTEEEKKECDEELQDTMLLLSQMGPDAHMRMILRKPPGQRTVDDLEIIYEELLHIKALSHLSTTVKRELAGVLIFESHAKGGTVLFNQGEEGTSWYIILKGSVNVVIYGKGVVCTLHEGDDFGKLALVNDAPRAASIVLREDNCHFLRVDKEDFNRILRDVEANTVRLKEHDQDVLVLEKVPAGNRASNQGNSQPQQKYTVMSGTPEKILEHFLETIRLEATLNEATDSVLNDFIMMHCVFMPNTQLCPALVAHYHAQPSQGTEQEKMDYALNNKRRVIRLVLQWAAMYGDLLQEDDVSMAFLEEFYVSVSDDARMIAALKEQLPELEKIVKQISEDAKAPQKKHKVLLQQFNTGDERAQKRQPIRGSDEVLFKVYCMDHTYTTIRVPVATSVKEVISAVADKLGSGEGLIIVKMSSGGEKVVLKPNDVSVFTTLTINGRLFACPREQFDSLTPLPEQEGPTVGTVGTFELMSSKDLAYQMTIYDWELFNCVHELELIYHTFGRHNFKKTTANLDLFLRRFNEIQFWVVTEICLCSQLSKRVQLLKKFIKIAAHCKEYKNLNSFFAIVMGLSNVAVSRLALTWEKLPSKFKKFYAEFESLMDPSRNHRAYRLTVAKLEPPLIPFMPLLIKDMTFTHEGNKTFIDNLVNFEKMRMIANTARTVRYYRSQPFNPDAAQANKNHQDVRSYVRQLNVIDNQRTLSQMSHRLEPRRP

Each compound was assayed against Rap guanine nucleotide exchange factor 4 (Homo sapiens) (UniProt Q8WZA2) (assay: qHTS for Agonist of cAMP-regulated guanine nucleotide exchange factor 4 (EPAC2): primary screen). Conditions: biochemical qHTS; Potency: EPAC2 activation unless noted; activation: at 154 µM (top of the series), 100% = 6.5 mM cAMP response unless noted.
In short: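 Guanine nucleotide exchange by EPAC2 is measured as reduced fluorescence of BODIPY-GDP once it is released from 250 nM Rap1B. Plates are read kinetically for 30 min at room temperature; results are scaled to 6.5 mM cAMP.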
For `Cc1ccc(O)c(C(=O)c2cc(C#N)c3nc4ccccc4n3c2)c1`, the Potency was inconclusive: 112 µM [activator, partial curve].
For `COc1ccc(-c2c(C#N)c(N)nc3sc(C(=O)c4ccccc4)c(N)c23)cc1`, the “activation” value was inactive: 8.29%.
`CCc1ccc2[nH]c3nc(N/N=C/c4cccc(O)c4)nnc3c2c1` was tested, and the “activation” value was inactive: 5.87%.
With `O=C(OCCCN=C1NS(=O)(=O)c2ccccc21)c1ccc([N+](=O)[O-])cc1` the Potency was inconclusive: 25.1 µM [activator, partial curve].
In the case of `CC(C)(CO)NCc1cc(Br)ccc1OCc1ccccc1`, the Potency is reported as inconclusive: 50.1 µM [activator, single point].
`C=CCOc1ccc(C2N3CC4(CC)CN2CC(CC)(C3)C4=O)cc1` (centres undefined) was tested, and the Potency was inconclusive: 126 µM [activator, single point].
In the case of `Clc1ccccc1/C=N/N1CCN(Cc2ccccc2)CC1`, the Potency is reported as inconclusive: 89.1 µM [activator, partial curve].
In the case of `CN(C)c1ccc(/C=C(\C#N)c2ccccn2)cc1`, the Potency is reported as inconclusive: 100 µM [activator, partial curve].
`CN(C)c1ccc(/C=N/N2CCN(Cc3ccccc3Cl)CC2)cc1` was tested, and the Potency was inconclusive: 89.1 µM [activator, partial curve].
With `COc1cc(/C=C2\SC(=S)N(CCC(=O)Nc3ccccc3O)C2=O)cc(OC)c1OC` the Potency was inconclusive: 70.8 µM [activator, partial curve].
With `CC1=NOC(=O)/C1=C\c1ccc(-c2cc(Cl)ccc2Cl)o1` the “activation” value was inactive: 1.27%.
In the case of `O/C=c1\ccc2cccc3nc(C(F)(F)F)nc1c23`, the Potency is reported as inconclusive: 100 µM [activator, partial curve, poor fit].
`CCOC(=O)c1cnc2c(-c3ccc(Cl)cc3)cnn2c1C` was tested, and the Potency was inconclusive: 28.2 µM [activator, single point].
For `Cc1nc(CCNC(=O)Cc2ccccc2)cs1`, the activation was inconclusive: 314% [activator] [at 15.6 µM, 100% = 6.5 mM cAMP response].
With `COC1CC(N)C2OC(c3ccccc3)OCC2O1` (centres undefined) the “activation” value was inactive: 4.16%.
For `CC(C)N1CC=C2C(C#N)=C(N)C(C#N)(C#N)C(c3ccccc3)C2C1` (centres undefined), the Potency was inconclusive: 100 µM [activator, partial curve].
With `CC(=O)Nc1ccc(OCc2ccc3c(c2)OCO3)cc1` the “activation” value was inactive: 0.357%.
`CCCCN=C1N/C(=C\c2ccco2)C(=O)N1c1ccccc1` was tested, and the activation was inconclusive: 319% [activator] [at 15.6 µM, 100% = 6.5 mM cAMP response].
In the case of `CC(C)N=c1scc(-c2ccco2)n1/N=C/c1ccc(O)c(O)c1`, the Potency is reported as inconclusive: 79.4 µM [activator, partial curve].
